Record: PubChem BioAssay AID602196 (INSERM, 2012)

Assay: 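Genes whose knock-down alters cisplatin killing of lung cancer cells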
Cell system: human A549 lung cancer cells
Reagents: siRNA pair against human genes
Timing: 48 h transfection before cisplatin; time from cisplatin to read-out not stated
Conditions: cisplatin at a dose killing half of control-siRNA cells; exact dose and duration not given
Read-out: 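Shift in cisplatin death relative to control siRNA, from -50 (all cells die) to +50 (no cells die); siRNAs harmful on their own scored 0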
Reading the numbers: two-siRNA summed score (-2 to +2): higher = both siRNAs protect from cisplatin killing; -2 means both sensitise; mean protection from cisplatin (shift in death) and protection from cisplatin (shift in death), siRNA C and protection from cisplatin (shift in death), siRNA D: higher = protection from cisplatin killing
Call rule: 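siRNAs harmful alone (LDH or WST-1) get 0; others get +1 for less and -1 for more cisplatin killing; genes are active when the two siRNAs give the same sign, summing to ±2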
Calls: active = both siRNAs shift cisplatin killing the same way; inactive = no consistent shift, or siRNA harmful alone
In all, the deposit lists about 23,000 reagents; below is a part drawn at random. Of all reagents, 455 (2%) were called active. 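Active includes both protection and sensitisation; some change values fall well beyond the stated -50 to +50 range.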 Reagent sequences are not shown. Not stated in the record: the amount of reagent.

| gene knocked down | two-siRNA summed score (-2 to +2) | mean protection from cisplatin (shift in death) (%) | protection from cisplatin (shift in death), siRNA C (%) | protection from cisplatin (shift in death), siRNA D (%) | outcome |
| --- | --- | --- | --- | --- | --- |
| OR1N1 (GeneID 138883) | 0 | 12.2 | 2.4 | 21.9 | inactive |
| OR1J2 (GeneID 26740) | -1 | -8.4 | 0.8 | -17.6 | inactive |
| GADD45B (GeneID 4616) | 0 | -9 | -15.3 | -2.7 | inactive |
| LOC340089 (GeneID 340089) | 0 | -5.7 | -9.7 | -1.8 | inactive |
| USP28 (GeneID 57646) | 0 | 6.3 | 12.5 | 0.1 | inactive |
| HMGB3 (GeneID 3149) | 0 | 1.6 | 8.1 | -4.9 | inactive |
| SEMA6A (GeneID 57556) | 0 | -18.9 | -8.5 | -29.4 | inactive |
| CCPG1 (GeneID 9236) | 0 | 4.6 | 12.1 | -2.8 | inactive |
| WDR3 (GeneID 10885) | 0 | -7 | -11.9 | -2.2 | inactive |
| TMEM51-AS1 (GeneID 200197) | 0 | 1.5 | -4.7 | 7.6 | inactive |
| RPL13A (GeneID 23521) | 0 | 1.4 | 7.2 | -4.4 | inactive |
| LOX (GeneID 4015) | 0 | 7.2 | 5.4 | 9 | inactive |
| EPS8L3 (GeneID 79574) | 0 | -7.4 | -7.3 | -7.6 | inactive |
| MGC35030 | 1 | 22.9 | 23 | 22.8 | inactive |
| POU6F2 (GeneID 11281) | 0 | 0.5 | 11.9 | -10.9 | inactive |
| BCAT2 (GeneID 587) | -1 | -10.9 | 1 | -22.8 | inactive |
| FIGLA (GeneID 344018) | 0 | -5.1 | -3.5 | -6.6 | inactive |
| TRIM56 (GeneID 81844) | 0 | 7.6 | -1.6 | 16.9 | inactive |
| PMPCA (GeneID 23203) | 0 | -0.8 | -2.4 | 0.9 | inactive |
| DUX4L1 (GeneID 22947) | 0 | 7.8 | 8.5 | 7.2 | inactive |
| CEL (GeneID 1056) | 0 | 4.4 | -1.3 | 10 | inactive |
| GOLM2 (GeneID 113201) | 0 | 0.1 | -1.6 | 1.9 | inactive |
| GRM4 (GeneID 2914) | -1 | -9.4 | -29.1 | 10.3 | inactive |
| PPP2CB (GeneID 5516) | 0 | 0.6 | 4.5 | -3.2 | inactive |
| CPT2 (GeneID 1376) | -1 | -9.5 | -14.9 | -4.1 | inactive |
| DHCR24 (GeneID 1718) | 0 | -4.3 | 1.6 | -10.2 | inactive |
| LOC166994 (retired record) (GeneID 166994) | 1 | 9.8 | 5.5 | 14.2 | inactive |
| KCTD16 (GeneID 57528) | 0 | 6.4 | 13.8 | -1 | inactive |
| PITPNM1 (GeneID 9600) | 0 | 2.3 | -5.6 | 10.2 | inactive |
| KCP (GeneID 375616) | 0 | 7.4 | 32.1 | -17.2 | inactive |
| CHP1 (GeneID 11261) | 2 | 22.8 | 17.6 | 28.1 | active |
| JCAD (GeneID 57608) | 1 | 10.7 | 6.2 | 15.1 | inactive |
| KCNRG (GeneID 283518) | 0 | 4.8 | 2.6 | 7 | inactive |
| TPST2 (GeneID 8459) | 1 | 15.3 | 21.1 | 9.5 | inactive |
| IL1B (GeneID 3553) | 0 | 19 | 9.2 | 28.8 | inactive |
| MALT1 (GeneID 10892) | -1 | -2.6 | -18.2 | 13 | inactive |
| FLJ45422 | 0 | 3.3 | 0.6 | 6 | inactive |
| IFT54 (GeneID 26146) | -1 | -17.9 | -28.8 | -7.1 | inactive |
| NRDE2 (GeneID 55051) | 0 | -2.3 | 3.4 | -8 | inactive |
| GBP2 (GeneID 2634) | 1 | 2.4 | -8.8 | 13.5 | inactive |
| RETREG2 (GeneID 79137) | 1 | 11.4 | 18.8 | 4.1 | inactive |
| SEC23B (GeneID 10483) | 0 | 3 | 3.2 | 2.7 | inactive |
| ANAPC2 (GeneID 29882) | 0 | -20.4 | -20.4 | -20.5 | inactive |
| FLJ14959 | 0 | 6.3 | 8.4 | 4.1 | inactive |
| LINC00923 (GeneID 91948) | 0 | 7.2 | 8.3 | 6.1 | inactive |
| LOC400097 | 0 | 5 | 5.2 | 4.9 | inactive |
| EIF3M (GeneID 10480) | 0 | 25.3 | 25.1 | 25.5 | inactive |
| FAM218A (GeneID 152756) | 0 | -0.8 | -11.1 | 9.6 | inactive |
| RNF167 (GeneID 26001) | 0 | -7.8 | -20.6 | 5.1 | inactive |
| DPP10-AS1 (GeneID 389023) | 1 | 21.6 | 41 | 2.3 | inactive |
| LOC401896 | 0 | 26.2 | 8.3 | 44 | inactive |
| SETD9 (GeneID 133383) | 0 | 7.4 | 1.9 | 13 | inactive |
| SNAPC4 (GeneID 6621) | 0 | 0.8 | -10.9 | 12.6 | inactive |
| CPSF6 (GeneID 11052) | -1 | -4.1 | -7.5 | -0.7 | inactive |
| LOC387912 | 0 | -4.8 | 12.7 | -22.3 | inactive |
| FAM181A (GeneID 90050) | 0 | -3.8 | 3.6 | -11.2 | inactive |
| TRIM13 (GeneID 10206) | 0 | 11.6 | 4.8 | 18.4 | inactive |
| LOC339804 | 1 | 11 | 3.7 | 18.2 | inactive |
| RNF24 (GeneID 11237) | -1 | -14 | -8.3 | -19.7 | inactive |
| NFX1 (GeneID 4799) | -1 | -12 | -32.4 | 8.5 | inactive |
| LOC439955 | 0 | 0.4 | -10.6 | 11.5 | inactive |
| OR13G1 (GeneID 441933) | 0 | 5.4 | 5.6 | 5.3 | inactive |
| ABCA16P (GeneID 342293) | 1 | 14.3 | 12.1 | 16.4 | inactive |
| R3HDM4 (GeneID 91300) | 1 | 14.3 | 24.3 | 4.3 | inactive |
| CCDC171 (GeneID 203238) | 0 | 4.9 | 11.1 | -1.4 | inactive |
| TK1 (GeneID 7083) | 0 | 6.2 | 11.8 | 0.7 | inactive |
| OR7A5 (GeneID 26659) | 0 | 1.5 | -0.6 | 3.7 | inactive |
| TMEM14B (GeneID 81853) | 0 | -6 | 6 | -18 | inactive |
| ZNF835 (GeneID 90485) | 0 | 14.8 | 18.4 | 11.1 | inactive |
| VKORC1L1 (GeneID 154807) | 0 | 1.8 | -4.4 | 8 | inactive |
| POU5F1 (GeneID 5460) | 0 | 7.7 | 16.7 | -1.3 | inactive |
| CAPZB (GeneID 832) | 0 | 4.7 | 6.1 | 3.2 | inactive |
| IFITM3P8 (GeneID 442389) | 0 | 7.3 | 1.7 | 13 | inactive |

Active calls, of those listed so far:
| gene knocked down | two-siRNA summed score (-2 to +2) | mean protection from cisplatin (shift in death) (%) | protection from cisplatin (shift in death), siRNA C (%) | protection from cisplatin (shift in death), siRNA D (%) | outcome |
| --- | --- | --- | --- | --- | --- |
| CHP1 (GeneID 11261) | 2 | 22.8 | 17.6 | 28.1 | active |
